Experimental data: PubChem BioAssay AID1671195 (Yale University, 2021)
Screen: 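Genes whose knockdown alters LDL uptake in liver cancer cells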 (primary screen). Cells: human Huh7 hepatoma cells. Reagent: siRNA pool against human genes, 18 nM. Duration: about 2 to 2.5 days of knockdown, then 8 h LDL uptake. Challenge: DiI-labelled LDL at 30 µg/ml for 8 h, in lipoprotein-deficient serum medium. Measured: 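Fluorescent LDL signal imaged in cells, scaled to the plate median, robust z-score for each replicate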. Scale: robust z-score: higher = more LDL uptake after knockdown. Active means: 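Active when two or more replicates show a robust z-score above 2 or below -2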.
Here is an unselected part of about 22,000 reagents tested. About 1,510 of them (6.9%) were called active. 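Active includes knockdowns raising or lowering LDL uptake; positive z-scores mean more uptake, negative mean less.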

gene symbol | robust z-score, replicate 1 | robust z-score, replicate 2 | robust z-score, replicate 3 | Call
ZNF584 | 1.55 | 0.957 | 1.51 | inactive
ARL14 | 1.37 | 1.84 | 0.666 | inactive
ELAC1 | -0.194 | -0.294 | 0.204 | inactive
YTHDC2 | -0.104 | -0.292 | -0.319 | inactive
GRXCR1 | 1.32 | 1.24 | 1.01 | inactive
KIF3A | 0.309 | 0.382 | -0.497 | inactive
SALL4 | 1.11 | 0.714 | 0.285 | inactive
SUDS3 | -0.736 | -1.21 | -0.592 | inactive
CCNL1 | -0.174 | 0.0536 | -0.78 | inactive
CDH20 | 0.273 | 0.164 | 0.112 | inactive
PON3 | 0.447 | 1 | -2.14 | inactive
GPR25 | 0.792 | 0.619 | 1.12 | inactive
UTP14A | -0.459 | 0.0513 | 0.0378 | inactive
ARGFX | -0.458 | -0.962 | -0.781 | inactive
RS1 | 0.992 | -0.167 | -0.353 | inactive
MAGEA12 | 1.09 | 0.435 | 0.244 | inactive
RMDN3 | -1.96 | 0.0792 | -0.374 | inactive
GTF2A1 | 0.513 | 0.792 | 0.484 | inactive
METTL18 | -0.414 | -1.69 | -1.14 | inactive
ATXN3 | -0.169 | -1.53 | -0.399 | inactive
GRIN3A | 0.735 | 0.673 | 1.75 | inactive
RPS16P8 | 0.445 | -0.684 | -1.18 | inactive
HNRNPH1 | -0.448 | -0.366 | -0.582 | inactive
PSMG4 | 0.899 | 0.712 | 1.46 | inactive
DCAF12L2 | -1.44 | -1.62 | -1.59 | inactive
SSPN | -0.944 | 1.78 | 0.313 | inactive
NXPH2 | -1.17 | -1.73 | -0.312 | inactive
WFDC1 | -1.02 | -0.479 | -1.07 | inactive
